This passage reports binding results from article PMC10865787.

Chains of the proteins cited; added tags and fusions are not shown.
UniProt P0DTC6: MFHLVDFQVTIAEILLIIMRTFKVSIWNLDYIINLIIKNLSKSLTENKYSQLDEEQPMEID
UniProt Q16531: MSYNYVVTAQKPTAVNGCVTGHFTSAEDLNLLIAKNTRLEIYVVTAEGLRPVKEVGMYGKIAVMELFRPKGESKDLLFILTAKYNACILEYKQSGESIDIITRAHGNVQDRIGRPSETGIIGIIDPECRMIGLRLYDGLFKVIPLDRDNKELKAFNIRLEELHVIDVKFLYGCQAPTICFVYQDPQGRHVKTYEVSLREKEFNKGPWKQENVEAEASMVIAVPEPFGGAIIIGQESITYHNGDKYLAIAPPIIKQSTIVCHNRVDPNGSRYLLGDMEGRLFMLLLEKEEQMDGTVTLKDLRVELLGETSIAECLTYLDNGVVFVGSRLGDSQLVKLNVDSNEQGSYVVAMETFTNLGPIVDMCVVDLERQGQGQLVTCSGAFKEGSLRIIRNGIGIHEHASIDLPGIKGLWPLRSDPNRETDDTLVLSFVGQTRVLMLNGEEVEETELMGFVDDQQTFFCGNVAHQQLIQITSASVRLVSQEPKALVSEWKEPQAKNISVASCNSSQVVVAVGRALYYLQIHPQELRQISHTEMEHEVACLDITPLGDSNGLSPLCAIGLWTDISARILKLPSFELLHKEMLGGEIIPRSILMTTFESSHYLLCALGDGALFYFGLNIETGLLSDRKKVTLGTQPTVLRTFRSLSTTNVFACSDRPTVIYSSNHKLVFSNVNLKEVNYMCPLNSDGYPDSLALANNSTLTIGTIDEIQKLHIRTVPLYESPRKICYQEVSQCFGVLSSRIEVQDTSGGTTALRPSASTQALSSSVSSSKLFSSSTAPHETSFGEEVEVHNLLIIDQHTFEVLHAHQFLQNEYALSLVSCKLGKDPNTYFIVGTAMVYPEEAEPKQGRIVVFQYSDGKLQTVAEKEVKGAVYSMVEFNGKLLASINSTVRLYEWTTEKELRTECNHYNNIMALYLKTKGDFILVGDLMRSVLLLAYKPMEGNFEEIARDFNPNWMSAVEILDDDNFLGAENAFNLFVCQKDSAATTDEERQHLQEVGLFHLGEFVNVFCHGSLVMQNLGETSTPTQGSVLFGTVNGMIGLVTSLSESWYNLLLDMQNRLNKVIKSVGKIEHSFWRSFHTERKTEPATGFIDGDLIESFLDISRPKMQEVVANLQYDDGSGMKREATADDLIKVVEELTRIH
UniProt Q96JK2: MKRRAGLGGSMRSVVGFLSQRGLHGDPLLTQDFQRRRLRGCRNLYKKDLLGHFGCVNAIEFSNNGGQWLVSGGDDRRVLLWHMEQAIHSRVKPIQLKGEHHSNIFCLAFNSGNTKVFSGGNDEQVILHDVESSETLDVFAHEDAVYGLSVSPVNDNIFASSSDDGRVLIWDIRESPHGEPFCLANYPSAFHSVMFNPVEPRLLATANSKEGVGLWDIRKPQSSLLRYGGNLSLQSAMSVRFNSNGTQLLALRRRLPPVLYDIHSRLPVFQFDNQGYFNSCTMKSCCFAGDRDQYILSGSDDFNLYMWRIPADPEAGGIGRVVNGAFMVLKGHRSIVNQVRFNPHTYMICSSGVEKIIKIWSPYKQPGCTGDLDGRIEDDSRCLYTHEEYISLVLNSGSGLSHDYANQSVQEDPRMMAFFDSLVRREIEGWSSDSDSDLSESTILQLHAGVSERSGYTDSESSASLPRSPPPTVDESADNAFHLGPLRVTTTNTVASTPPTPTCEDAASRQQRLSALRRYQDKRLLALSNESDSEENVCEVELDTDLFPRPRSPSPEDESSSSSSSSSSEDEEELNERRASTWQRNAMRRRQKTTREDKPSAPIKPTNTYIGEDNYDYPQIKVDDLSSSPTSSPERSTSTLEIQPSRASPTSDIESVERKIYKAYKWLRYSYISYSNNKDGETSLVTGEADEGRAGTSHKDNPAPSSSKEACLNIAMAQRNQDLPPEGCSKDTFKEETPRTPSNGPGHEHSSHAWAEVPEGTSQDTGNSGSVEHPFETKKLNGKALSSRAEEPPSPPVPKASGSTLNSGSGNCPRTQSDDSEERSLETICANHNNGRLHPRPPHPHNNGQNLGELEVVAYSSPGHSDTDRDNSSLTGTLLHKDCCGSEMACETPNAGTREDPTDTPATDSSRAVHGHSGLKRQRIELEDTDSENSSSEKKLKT
UniProt Q9BQA1: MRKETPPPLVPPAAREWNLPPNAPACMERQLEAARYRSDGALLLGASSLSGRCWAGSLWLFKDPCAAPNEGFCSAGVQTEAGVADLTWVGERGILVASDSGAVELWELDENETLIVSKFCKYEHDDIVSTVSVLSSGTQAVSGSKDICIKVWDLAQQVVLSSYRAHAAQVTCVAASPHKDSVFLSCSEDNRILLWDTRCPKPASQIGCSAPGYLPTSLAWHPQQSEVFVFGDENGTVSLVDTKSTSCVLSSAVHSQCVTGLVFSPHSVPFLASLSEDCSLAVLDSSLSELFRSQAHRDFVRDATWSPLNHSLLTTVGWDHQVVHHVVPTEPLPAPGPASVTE
UniProt Q6UXN9: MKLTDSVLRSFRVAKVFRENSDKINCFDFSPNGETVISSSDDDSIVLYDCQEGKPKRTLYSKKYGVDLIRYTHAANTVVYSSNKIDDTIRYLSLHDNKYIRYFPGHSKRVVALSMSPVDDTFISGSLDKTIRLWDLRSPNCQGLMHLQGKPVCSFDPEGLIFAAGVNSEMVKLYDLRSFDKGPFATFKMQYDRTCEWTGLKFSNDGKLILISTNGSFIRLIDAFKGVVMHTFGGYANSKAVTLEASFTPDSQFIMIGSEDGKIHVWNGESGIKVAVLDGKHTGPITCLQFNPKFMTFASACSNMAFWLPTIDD

These are yes or no findings as the source states them, for the method shown. Binding seen in cells or lysates may run through a third protein. These calls come from enrichment with a bait or labelling near it, and not all partners need be listed.

The labels stand for the following.
B1: WDR11 (protein, UniProt Q9BZH6 1-1224)
chain: MLPYTVNFKVSARTLTGALNAHNKAAVDWGWQGLIAYGCHSLVVVIDSITAQTLQVLEKHKADVVKVKWARENYHHNIGSPYCLRLASADVNGKIIVWDVAAGVAQCEIQEHAKPIQDVQWLWNQDASRDLLLAIHPPNYIVLWNADTGTKLWKKSYADNILSFSFDPFDPSHLTLLTSEGIVFISDFSPSKPPSGPGKKVYISSPHSSPAHNKLATATGAKKALNKVKILITQEKPSAEFITLNDCLQLAYLPSKRNHMLLLYPREILILDLEVNQTVGVIAIERTGVPFLQVIPCFQRDGLFCLHENGCITLRVRRSYNNIFTTSNEEPDPDPVQELTYDLRSQCDAIRVTKTVRPFSMVCCPVNENAAALVVSDGRVMIWELKSAVCNRNSRNSSSGVSPLYSPVSFCGIPVGVLQNKLPDLSLDNMIGQSAIAGEEHPRGSILREVHLKFLLTGLLSGLPAPQFAIRMCPPLTTKNIKMYQPLLAVGTSNGSVLVYHLTSGLLHKELSIHSCEVKGIEWTSLTSFLSFATSTPNNMGLVRNELQLVDLPTGRSIAFRGERGNDESAIEMIKVSHLKQYLAVVFRDKPLELWDVRTCTLLREMSKNFPTITALEWSPSHNLKSLRKKQLATREAMARQTVVSDTELSIVESSVISLLQEAESKSELSQNISAREHFVFTDIDGQVYHLTVEGNSVKDSARIPPDGSMGSITCIAWKGDTLVLGDMDGNLNFWDLKGRVSRGIPTHRSWVRKIRFAPGKGNQKLIAMYNDGAEVWDTKEVQMVSSLRSGRNVTFRILDVDWCTSDKVILASDDGCIRVLEMSMKSACFRMDEQELTEPVWCPYLLVPRASLALKAFLLHQPWNGQYSLDISHVDYPENEEIKNLLQEQLNSLSNDIKKLLLDPEFTLLQRCLLVSRLYGDESELHFWTVAAHYLHSLSQEKSASTTAPKEAAPRDKLSNPLDICYDVLCENAYFQKFQLERVNLQEVKRSTYDHTRKCTDQLLLLGQTDRAVQLLLETSADNQHYYCDSLKACLVTTVTSSGPSQSTIKLVATNMIANGKLAEGVQLLCLIDKAADACRYLQTYGEWNRAAWLAKVRLNPEECADVLRRWVDHLCSPQVNQKSKALLVLLSLGCFFSVAETLHSMRYFDRAALFVEACLKYGAFEVTEDTEKLITAIYADYARSLKNLGFKQGAVLFASKAGAAGKDLLNELESPKEEPIEE
B2: WDR83 (protein, UniProt Q9BRX9 1-315)
chain: MAFPEPKPRPPELPQKRLKTLDCGQGAVRAVRFNVDGNYCLTCGSDKTLKLWNPLRGTLLRTYSGHGYEVLDAAGSFDNSSLCSGGGDKAVVLWDVASGQVVRKFRGHAGKVNTVQFNEEATVILSGSIDSSIRCWDCRSRRPEPVQTLDEARDGVSSVKVSDHEILAGSVDGRVRRYDLRMGQLFSDYVGSPITCTCFSRDGQCTLVSSLDSTLRLLDKDTGELLGEYKGHKNQEYKLDCCLSERDTHVVSCSEDGKVFFWDLVEGALALALPVGSGVVQSLAYHPTEPCLLTAMGGSVQCWREEAYEAEDGAG

The target of one assay is SARS-CoV-2 ORF6-HA (SARS-CoV-2) (UniProt P0DTC6). In words: affinity purification with mass spectrometry.
As to B1, the binding entry was “binds”.
Regarding B2, the binding entry is given as “binds”.

Another assay has the same target. In words: affinity purification with mass spectrometry. This is another data set of the same source.
In the case of “DDB1, endogenous (from UniProt Q16531 1-1140)”, the binding entry is “binds”.
On the same count and under the same terms, in the case of DCAF5 (from UniProt Q96JK2 1-942) it was “binds”; in that of WDR77 (from UniProt Q9BQA1 1-342), “binds”; in that of WDR82 (from UniProt Q6UXN9 1-313), “binds”.
